Test results: the supplement of paper PMC12823440, “Inhibitors supercharge kinase turnover through native proteolytic circuits” (Nature, 2025)
Structures can show the parent of a compound that is named as a salt. Some of the results follow. Hit calls seldom repeat between salt and free forms of one compound.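 Kinases, fused to nanoluciferase, were expressed in K562 cells; luminescence was measured every 4 h from 2 to 18 h as percent of control (DMSO = 100%, positive control = 0%). A time point is decreased if signal falls significantly (2 sigma). Hits were called by the authors by a rule that is not shown; the count of time points alone does not decide it.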

Chains of the proteins cited; added tags and fusions are not shown. Lines headed by an entry give the natural chain unless they say otherwise; changes in a name come on top.
UniProt Q9UQM7, whole entry: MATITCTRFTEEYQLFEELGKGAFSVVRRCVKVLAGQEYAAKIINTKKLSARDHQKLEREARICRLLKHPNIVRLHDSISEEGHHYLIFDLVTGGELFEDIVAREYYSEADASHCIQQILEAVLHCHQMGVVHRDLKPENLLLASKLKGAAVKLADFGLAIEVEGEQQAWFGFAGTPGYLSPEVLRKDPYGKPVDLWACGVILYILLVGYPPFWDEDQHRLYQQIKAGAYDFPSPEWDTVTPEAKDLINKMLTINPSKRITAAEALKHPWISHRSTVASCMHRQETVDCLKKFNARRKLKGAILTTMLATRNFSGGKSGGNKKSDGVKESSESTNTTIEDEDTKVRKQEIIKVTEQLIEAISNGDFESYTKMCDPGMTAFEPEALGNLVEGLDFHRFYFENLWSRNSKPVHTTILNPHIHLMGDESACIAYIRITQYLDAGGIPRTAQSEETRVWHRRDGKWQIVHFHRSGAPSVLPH
UniProt Q13555: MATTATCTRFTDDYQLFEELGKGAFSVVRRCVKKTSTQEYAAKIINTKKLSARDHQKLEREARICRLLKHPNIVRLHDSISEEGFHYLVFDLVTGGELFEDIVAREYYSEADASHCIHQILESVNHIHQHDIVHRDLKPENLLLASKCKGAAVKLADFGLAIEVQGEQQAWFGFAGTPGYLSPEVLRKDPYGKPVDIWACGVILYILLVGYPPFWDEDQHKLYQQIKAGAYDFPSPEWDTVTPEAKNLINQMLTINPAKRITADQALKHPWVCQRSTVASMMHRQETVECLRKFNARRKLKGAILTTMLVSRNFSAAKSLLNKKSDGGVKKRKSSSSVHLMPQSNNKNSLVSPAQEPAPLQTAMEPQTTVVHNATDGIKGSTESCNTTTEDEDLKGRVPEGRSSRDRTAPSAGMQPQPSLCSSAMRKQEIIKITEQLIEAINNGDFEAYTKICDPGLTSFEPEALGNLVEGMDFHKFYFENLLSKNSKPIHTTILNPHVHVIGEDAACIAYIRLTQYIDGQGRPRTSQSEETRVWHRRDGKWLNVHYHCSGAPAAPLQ
UniProt Q15131: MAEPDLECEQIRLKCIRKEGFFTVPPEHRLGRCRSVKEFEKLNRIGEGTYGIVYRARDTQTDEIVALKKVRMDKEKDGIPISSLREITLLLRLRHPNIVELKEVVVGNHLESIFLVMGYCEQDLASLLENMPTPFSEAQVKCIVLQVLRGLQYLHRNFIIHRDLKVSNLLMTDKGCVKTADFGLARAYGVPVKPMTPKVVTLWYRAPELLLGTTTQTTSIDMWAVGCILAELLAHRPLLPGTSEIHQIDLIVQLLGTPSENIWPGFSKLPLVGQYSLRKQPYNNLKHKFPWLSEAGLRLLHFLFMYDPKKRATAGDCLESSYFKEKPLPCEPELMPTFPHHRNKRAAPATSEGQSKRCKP
UniProt Q00526: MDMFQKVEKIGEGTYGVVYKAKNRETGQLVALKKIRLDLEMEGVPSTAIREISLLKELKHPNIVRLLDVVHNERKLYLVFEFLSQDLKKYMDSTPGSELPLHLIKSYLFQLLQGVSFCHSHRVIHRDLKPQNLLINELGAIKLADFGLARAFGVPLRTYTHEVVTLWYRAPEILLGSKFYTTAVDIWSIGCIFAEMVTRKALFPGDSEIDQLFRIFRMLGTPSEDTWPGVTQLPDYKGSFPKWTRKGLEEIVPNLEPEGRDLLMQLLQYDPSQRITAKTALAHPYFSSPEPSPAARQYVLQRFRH
UniProt Q00535, whole entry, looked up: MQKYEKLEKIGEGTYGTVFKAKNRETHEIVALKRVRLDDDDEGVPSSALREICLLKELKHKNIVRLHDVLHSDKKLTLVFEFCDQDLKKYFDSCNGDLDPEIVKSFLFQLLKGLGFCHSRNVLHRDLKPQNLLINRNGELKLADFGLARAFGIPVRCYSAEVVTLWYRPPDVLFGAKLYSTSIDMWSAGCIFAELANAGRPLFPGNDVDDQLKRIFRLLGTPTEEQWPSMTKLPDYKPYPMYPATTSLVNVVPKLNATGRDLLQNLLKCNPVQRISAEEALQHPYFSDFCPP
UniProt Q00534, whole entry: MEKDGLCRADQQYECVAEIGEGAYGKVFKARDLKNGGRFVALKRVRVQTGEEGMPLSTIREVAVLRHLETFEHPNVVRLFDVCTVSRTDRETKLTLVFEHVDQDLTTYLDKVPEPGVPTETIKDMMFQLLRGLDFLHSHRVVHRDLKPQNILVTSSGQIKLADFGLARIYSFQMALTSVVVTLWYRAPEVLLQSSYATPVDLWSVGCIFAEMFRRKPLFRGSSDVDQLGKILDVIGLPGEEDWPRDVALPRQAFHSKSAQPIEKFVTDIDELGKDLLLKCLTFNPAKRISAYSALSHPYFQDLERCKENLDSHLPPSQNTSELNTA
UniProt O96017, whole entry: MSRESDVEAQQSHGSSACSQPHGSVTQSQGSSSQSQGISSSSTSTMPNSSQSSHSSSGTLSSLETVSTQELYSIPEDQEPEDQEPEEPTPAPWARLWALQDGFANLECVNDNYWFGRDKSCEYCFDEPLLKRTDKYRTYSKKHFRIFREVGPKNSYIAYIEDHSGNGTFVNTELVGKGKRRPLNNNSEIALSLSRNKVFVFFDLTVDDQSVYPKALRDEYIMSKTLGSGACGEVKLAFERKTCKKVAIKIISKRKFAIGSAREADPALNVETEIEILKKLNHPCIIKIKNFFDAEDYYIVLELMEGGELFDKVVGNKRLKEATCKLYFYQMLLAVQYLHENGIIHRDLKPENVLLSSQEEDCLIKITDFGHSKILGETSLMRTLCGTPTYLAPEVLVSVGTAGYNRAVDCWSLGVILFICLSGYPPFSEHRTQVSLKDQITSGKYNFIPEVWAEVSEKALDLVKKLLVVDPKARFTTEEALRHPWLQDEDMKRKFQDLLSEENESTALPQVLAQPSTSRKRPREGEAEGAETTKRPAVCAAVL
UniProt P07333, whole entry: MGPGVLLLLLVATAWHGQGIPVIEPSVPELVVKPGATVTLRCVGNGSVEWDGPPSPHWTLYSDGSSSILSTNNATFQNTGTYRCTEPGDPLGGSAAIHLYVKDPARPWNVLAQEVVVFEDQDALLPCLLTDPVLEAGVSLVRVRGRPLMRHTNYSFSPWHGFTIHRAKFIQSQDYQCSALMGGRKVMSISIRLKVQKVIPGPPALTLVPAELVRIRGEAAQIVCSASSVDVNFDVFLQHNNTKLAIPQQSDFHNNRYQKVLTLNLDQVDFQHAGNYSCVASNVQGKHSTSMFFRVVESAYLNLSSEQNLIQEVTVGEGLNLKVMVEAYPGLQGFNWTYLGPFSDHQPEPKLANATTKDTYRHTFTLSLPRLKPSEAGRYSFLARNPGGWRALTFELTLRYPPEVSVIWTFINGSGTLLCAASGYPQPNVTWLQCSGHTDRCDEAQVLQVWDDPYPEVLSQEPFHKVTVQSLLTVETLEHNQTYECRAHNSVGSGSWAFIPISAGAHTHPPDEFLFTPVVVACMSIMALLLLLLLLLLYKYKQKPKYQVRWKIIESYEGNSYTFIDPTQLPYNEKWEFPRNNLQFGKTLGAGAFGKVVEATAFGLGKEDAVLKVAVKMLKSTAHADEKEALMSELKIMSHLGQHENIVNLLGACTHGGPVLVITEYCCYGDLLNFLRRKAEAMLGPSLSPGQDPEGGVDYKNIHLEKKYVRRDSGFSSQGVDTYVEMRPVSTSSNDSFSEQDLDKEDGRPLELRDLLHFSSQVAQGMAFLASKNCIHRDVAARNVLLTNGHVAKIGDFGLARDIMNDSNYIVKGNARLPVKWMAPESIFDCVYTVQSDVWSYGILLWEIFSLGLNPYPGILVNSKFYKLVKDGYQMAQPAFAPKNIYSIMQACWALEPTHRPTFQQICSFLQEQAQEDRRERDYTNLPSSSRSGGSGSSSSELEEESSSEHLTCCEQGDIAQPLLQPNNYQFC
UniProt P41240: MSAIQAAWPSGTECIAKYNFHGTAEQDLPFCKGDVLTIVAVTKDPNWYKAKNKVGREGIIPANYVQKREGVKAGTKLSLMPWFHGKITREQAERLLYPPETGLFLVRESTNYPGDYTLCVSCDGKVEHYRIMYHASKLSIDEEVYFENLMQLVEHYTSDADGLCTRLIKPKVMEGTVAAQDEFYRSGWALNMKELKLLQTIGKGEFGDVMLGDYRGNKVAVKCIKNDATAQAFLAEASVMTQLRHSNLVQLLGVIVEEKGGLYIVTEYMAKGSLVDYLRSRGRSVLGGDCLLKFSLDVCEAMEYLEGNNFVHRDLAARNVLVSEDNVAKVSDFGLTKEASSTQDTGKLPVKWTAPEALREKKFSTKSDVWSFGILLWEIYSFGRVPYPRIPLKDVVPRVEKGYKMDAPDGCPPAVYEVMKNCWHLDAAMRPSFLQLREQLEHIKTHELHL
UniProt P48729: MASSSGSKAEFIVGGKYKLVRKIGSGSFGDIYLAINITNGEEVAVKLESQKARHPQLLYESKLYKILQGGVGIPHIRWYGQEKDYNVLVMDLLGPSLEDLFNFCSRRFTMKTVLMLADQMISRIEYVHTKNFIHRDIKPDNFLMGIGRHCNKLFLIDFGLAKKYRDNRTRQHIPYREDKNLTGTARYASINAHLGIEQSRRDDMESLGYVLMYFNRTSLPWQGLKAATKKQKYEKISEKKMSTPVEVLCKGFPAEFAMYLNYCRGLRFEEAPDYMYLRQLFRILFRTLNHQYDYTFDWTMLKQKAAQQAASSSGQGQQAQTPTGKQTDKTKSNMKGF
UniProt P48730: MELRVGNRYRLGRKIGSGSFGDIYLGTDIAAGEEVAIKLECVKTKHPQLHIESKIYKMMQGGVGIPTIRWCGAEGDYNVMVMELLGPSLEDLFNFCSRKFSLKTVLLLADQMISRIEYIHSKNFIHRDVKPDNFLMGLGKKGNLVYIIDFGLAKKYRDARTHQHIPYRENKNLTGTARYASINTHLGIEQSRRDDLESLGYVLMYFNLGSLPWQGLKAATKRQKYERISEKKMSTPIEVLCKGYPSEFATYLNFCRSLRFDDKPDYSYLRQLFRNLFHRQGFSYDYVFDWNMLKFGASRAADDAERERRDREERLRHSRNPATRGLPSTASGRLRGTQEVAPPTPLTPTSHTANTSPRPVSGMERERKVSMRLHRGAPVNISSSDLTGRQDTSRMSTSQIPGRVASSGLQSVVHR
UniProt Q08345: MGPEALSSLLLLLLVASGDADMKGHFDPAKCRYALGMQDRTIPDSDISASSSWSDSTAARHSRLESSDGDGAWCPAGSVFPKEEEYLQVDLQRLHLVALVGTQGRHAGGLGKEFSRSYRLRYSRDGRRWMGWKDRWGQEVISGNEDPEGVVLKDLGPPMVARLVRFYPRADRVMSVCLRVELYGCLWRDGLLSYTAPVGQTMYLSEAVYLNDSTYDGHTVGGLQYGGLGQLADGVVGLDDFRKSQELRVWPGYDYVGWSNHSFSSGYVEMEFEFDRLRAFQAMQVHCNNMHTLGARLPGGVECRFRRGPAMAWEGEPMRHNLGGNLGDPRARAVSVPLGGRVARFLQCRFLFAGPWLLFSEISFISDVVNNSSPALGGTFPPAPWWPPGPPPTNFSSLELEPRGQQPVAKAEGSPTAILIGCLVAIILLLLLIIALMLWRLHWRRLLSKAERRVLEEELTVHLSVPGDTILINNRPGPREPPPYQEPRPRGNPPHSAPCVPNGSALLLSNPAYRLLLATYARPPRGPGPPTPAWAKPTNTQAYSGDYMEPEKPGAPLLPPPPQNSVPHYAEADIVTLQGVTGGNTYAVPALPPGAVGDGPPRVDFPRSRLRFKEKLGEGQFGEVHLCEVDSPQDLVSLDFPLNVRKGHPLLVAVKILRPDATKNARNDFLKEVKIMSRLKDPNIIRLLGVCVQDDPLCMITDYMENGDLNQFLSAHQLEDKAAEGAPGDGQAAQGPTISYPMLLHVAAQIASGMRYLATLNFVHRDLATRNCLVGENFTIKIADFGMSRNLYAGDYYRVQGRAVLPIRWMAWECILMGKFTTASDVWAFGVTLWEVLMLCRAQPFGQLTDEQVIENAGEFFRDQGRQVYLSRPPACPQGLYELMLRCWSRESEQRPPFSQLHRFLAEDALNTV
UniProt Q9Y463, whole entry, looked up: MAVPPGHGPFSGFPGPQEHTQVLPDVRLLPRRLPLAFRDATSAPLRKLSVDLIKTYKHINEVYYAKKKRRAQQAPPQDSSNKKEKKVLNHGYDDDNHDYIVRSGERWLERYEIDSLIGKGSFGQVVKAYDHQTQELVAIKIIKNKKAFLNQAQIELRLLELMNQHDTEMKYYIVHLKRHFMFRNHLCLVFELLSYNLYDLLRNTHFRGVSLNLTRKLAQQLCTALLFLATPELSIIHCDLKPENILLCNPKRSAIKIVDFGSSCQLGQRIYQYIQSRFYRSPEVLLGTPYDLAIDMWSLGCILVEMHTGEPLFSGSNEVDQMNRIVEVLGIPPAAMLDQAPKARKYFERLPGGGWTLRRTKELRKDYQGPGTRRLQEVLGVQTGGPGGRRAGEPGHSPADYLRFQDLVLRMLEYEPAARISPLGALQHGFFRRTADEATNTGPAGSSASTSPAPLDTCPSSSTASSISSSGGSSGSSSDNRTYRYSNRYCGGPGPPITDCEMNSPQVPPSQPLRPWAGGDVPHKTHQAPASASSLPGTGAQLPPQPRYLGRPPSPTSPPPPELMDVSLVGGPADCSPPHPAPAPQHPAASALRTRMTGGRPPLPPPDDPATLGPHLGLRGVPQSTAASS

Experiments:
Experiment in all cases: number of time points (of 5) at which kinase-Nluc abundance scored as decreased, DMSO-normalised (count); higher = more persistent destabilization
Settings in all cases: K562; 2-18 h
[1] = molecular target: CAMK2A (UniProt Q9UQM7)
[2] = molecular target: CAMK2G (UniProt Q13555)
[3] = molecular target: CDK10 (UniProt Q15131)
[4] = molecular target: CDK2 (UniProt P24941)
[5] = molecular target: CDK3 (UniProt Q00526)
[6] = molecular target: CDK5 (UniProt Q00535)
[7] = molecular target: CDK6 (UniProt Q00534)
[8] = molecular target: CHEK2 (UniProt O96017)
[9] = molecular target: CSF1R (UniProt P07333)
[10] = molecular target: CSK (UniProt P41240)
[11] = molecular target: CSNK1A1 (UniProt P48729)
[12] = molecular target: CSNK1D (UniProt P48730)
[13] = molecular target: DDR1 (UniProt Q08345)
[14] = molecular target: DYRK1B (UniProt Q9Y463)
[15] = molecular target: DYRK2 (UniProt Q92630)
[16] = molecular target: EGFR (UniProt P00533)
[17] = molecular target: EGFR_G719S (UniProt P00533)
[18] = molecular target: EGFR_G719S_T790M (UniProt P00533)
[19] = molecular target: EGFR_L718V (UniProt P00533)
[20] = molecular target: EGFR_L858R (UniProt P00533)

SMILES	number of time points [1]	number of time points [2]	number of time points [3]	number of time points [4]	number of time points [5]	number of time points [6]	number of time points [7]	number of time points [8]	number of time points [9]	number of time points [10]	number of time points [11]	number of time points [12]	number of time points [13]	number of time points [14]	number of time points [15]	number of time points [16]	number of time points [17]	number of time points [18]	number of time points [19]	number of time points [20]
O=C(Nc1cccc(-c2nc(-c3ccc(NC(=O)c4cccnc4)cc3Cl)no2)c1)Nc1ccc(NC(=O)C2CC2)c(C(F)(F)F)c1 (2.5 µM)	0	0	0	0	0	0	0	0	0	0	0	0	0	0	0	0	0	0	0	0
CCN(CC)CCOc1ccc(Nc2nc(-c3ccccc3NC(=O)CCN3CCN(C)CC3)nc3ccccc23)cc1 (2.5 µM)	0	0	0	0	0	0	0	0	0	0	0	0	0	0	0	0	0	0	0	0
Cc1c(Cl)cccc1S(=O)(=O)Nc1nc(NCCc2ccccc2)nc2c1CN(Cc1ccccc1)CC2 (2.5 µM)	0	0	0	0	0	0	4	0	0	0	0	0	3	0	0	0	0	0	0	0
CN1CCN(c2ccc(Nc3ncc4cc(C#N)c(=O)n(C5CCCC5)c4n3)cc2)CC1 (10 µM)	0	0	0	0	0	0	0	0	0	0	0	0	0	0	0	0	0	0	0	0
O=C(O)c1ccc(/C=C/S(=O)(=O)Cc2ccc(Cl)cc2)cc1 [Recilisib] (10 µM)	0	0	0	0	0	0	0	0	0	0	0	0	0	0	0	0	0	0	0	0
CC1(N)CCN(c2cccnc2NC(=O)c2nc(-c3ncccc3C(F)(F)F)cnc2N)CC1 [Darovasertib] (10 µM)	0	0	0	0	0	0	0	0	0	0	0	0	0	0	0	0	0	0	0	0
CC(Cc1ccc(O)c(O)c1)C(C)Cc1ccc(O)c(O)c1 (stereo not given) [Nordihydroguaiaretic acid] (2.5 µM)	0	0	0	0	0	0	0	0	0	0	0	0	0	0	0	0	0	0	0	0
COCCOCCc1c(C)c2cc(OC)c(O)c(C=O)c2oc1=O (10 µM)	0	0	0	0	0	0	0	0	0	0	0	0	0	0	0	0	0	0	0	0
COc1cc2ncnc(Nc3cccc(I)c3)c2cc1OC (2.5 µM)	0	0	0	0	0	0	0	0	0	0	0	0	0	0	0	0	0	0	0	0
N#C/C(=C\c1ccc(O)c(O)c1)C(=O)O [Tyrphostin AG30] (10 µM)	0	0	0	0	0	0	0	0	0	0	0	0	0	0	0	0	0	0	0	0
C=CC(=O)Nc1cc(Nc2nccc(-c3cn(C)c4ccccc34)n2)c(OC)cc1N(C)CCNC [AZ7550 Mesylate] (2.5 µM)	0	0	0	0	0	0	0	0	0	0	0	0	1	0	0	0	0	0	0	0
Oc1c(F)cc(-c2cnccc2-c2ccc(N3CCOCC3)cc2)cc1F (10 µM)	0	0	0	0	0	0	0	0	0	0	0	0	0	0	0	0	0	0	0	0
COc1ccc(Nc2ncc(C(F)(F)F)c(NC3CC3)n2)cc1OC (10 µM)	0	0	0	0	0	0	0	0	0	0	0	0	1	0	4	0	0	0	0	0
C=CC(=O)Nc1cccc(Oc2nc(Nc3ccc(N4CCN(C)CC4)c(F)c3)nc3[nH]ccc23)c1 [Avitinib (maleate)] (2.5 µM)	0	0	0	0	0	0	0	0	0	0	0	0	0	0	0	0	0	0	0	0
COc1cc(-c2cc(-c3ccc(N4CCNCC4)cc3)cnc2C)cc(OC)c1OC (10 µM)	0	0	0	0	0	0	0	0	0	0	0	0	0	0	0	0	0	0	0	0
Cc1cc(Nc2cc(N3CCN(C)CC3)nc(Nc3ccc([N+](=O)[O-])cc3)n2)n[nH]1 (2.5 µM)	0	0	0	0	0	0	0	1	0	0	0	0	0	0	0	0	0	0	0	0
CC(C)[C@H](CO)Nc1nc(Nc2cccc(Cl)c2)c2ncn(C(C)C)c2n1 [Purvalanol A] (10 µM)	0	0	0	0	0	0	1	0	0	0	0	0	5	0	0	0	0	0	0	0
Cn1cc(-c2cc(Oc3cc(F)c(NC(=O)C4(C(=O)Nc5ccccc5)CC4)cc3F)ccn2)cn1 (2.5 µM)	0	0	0	0	0	0	0	0	0	0	0	0	0	0	1	0	0	0	0	0
CC(C)=CCC/C(C)=C/CC/C(C)=C/C=C/C(C)=C/C(=O)O [Peretinoin] (10 µM)	0	0	0	0	0	0	0	0	0	0	0	0	0	0	0	0	0	0	0	0
CC(C)=CC[C@@H](O)C1=CC(=O)c2c(O)ccc(O)c2C1=O [Shikonin] (10 µM)	0	0	0	0	0	0	0	0	0	0	0	0	0	0	0	0	0	0	0	0
NC[C@@](O)(c1ccc(Cl)cc1)c1ccc(-c2cn[nH]c2)cc1 (10 µM)	0	0	0	0	0	0	0	0	0	0	0	0	4	0	0	0	0	0	0	0
CC1CN(CC2CCN(Cc3ccccc3)CC2)C(=O)N(c2cccc(C(=N)N)c2)C1 (stereo not given) (10 µM)	0	0	0	0	0	0	0	0	0	0	0	0	0	0	0	0	0	0	0	0
N[C@@H]1CCCN(c2c(/C=C3\SC(=O)NC3=O)cccc2-c2ccccc2)C1 (10 µM)	0	0	0	0	0	0	0	0	0	0	0	0	0	0	4	0	0	0	0	0
CO[C@H]1CC[C@H](N2C(=O)CNc3ncc(-c4ccc(C(C)(C)O)nc4)nc32)CC1 (2.5 µM)	0	0	0	0	0	0	0	0	0	0	0	0	0	0	0	0	0	0	0	0
O=C1CC[C@H](NC(=O)Cc2ccccc2)C(=O)N1 [Antineoplaston A10] (10 µM)	0	0	0	0	0	0	0	0	0	0	0	0	0	0	0	0	0	0	0	0

Single records (already shown). Values in the order: number of time points [1] | number of time points [2] | number of time points [3] | number of time points [4] | number of time points [5] | number of time points [6] | number of time points [7] | number of time points [8] | number of time points [9] | number of time points [10] | number of time points [11] | number of time points [12] | number of time points [13] | number of time points [14] | number of time points [15] | number of time points [16] | number of time points [17] | number of time points [18] | number of time points [19] | number of time points [20]
COc1ccc(Nc2ncc(C(F)(F)F)c(NC3CC3)n2)cc1OC (10 µM) is listed as 0 | 0 | 0 | 0 | 0 | 0 | 0 | 0 | 0 | 0 | 0 | 0 | 1 | 0 | 4 | 0 | 0 | 0 | 0 | 0
O=C(O)c1ccc(/C=C/S(=O)(=O)Cc2ccc(Cl)cc2)cc1 [Recilisib] (10 µM) is listed as 0 | 0 | 0 | 0 | 0 | 0 | 0 | 0 | 0 | 0 | 0 | 0 | 0 | 0 | 0 | 0 | 0 | 0 | 0 | 0
